Reference: patent US20040132136A1 (ZymoGenetics, published 2004)
Results are given in words; binding and its absence hold for the method and conditions named. Binding seen in cells or lysates may run through a third protein. Some binding calls cover weakened binding; strength is not graded here. Tags and fused reporters may be left off the sequences shown.

Biological target: T1, untagged human Zcyto7 (human) (UniProt Q9UHF5)
T1 sequence (looked up): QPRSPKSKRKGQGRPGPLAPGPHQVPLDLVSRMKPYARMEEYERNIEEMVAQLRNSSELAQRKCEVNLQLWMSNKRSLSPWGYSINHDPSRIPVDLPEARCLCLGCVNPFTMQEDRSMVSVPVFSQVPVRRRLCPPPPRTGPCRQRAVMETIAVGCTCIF
Experiment: co-expression and co-purification on anti-EE tag antibody affinity; interaction not due to interchain disulfide bonding

- binding: binds
B1: Human Ztgfβ-9 protein (ligand)
chain: AGAPRAGRRPARPRGCADRPEELLEQLYGRLAAGVLSAFHHTLQLGPREQARNASCPAGGRPADRRFRPPTNLRSVSPWAYRISYDPARYPRYLPEAYCLCRGCLTGLFGEEDVRFRSAPVYMPTVVLRRTPACAGGRSVYTEAYVTIPVGCTCVPEPEKDADSINSSIDKQGAKLLLGPNDAPAGP
notes: Expressed in BHK cells both with and without a C-terminal Glu-Glu tag; It migrated at 29 kDa reduced and 49 kDa non-reduced, read as a disulfide cross-linked homodimer
